Experimental findings from US20170137753A1, “DELIVERY SYSTEMS COMPRISING MALODOR REDUCTION COMPOSITIONS” (The Procter & Gamble Company, priority 2014, published 2017) are described below.

The nature of this data set: Fragrance Fidelity Index (FFI), expert graders, treated fabric swatch against ethyl vanillin reference scale.
Where [1] appears, read: Conc 10 ppm test material on clean swatch.
Where [2] appears, read: Conc 50 ppm test material on clean swatch.

SMILES strings stand for the structures.

`O=C1CCC2CCCCC2O1` (stereo not drawn) [3,4,4a,5,6,7,8,8a-octahydrochromen-2-one]: the FFI was found to be 0 under setting [1] and 0 under setting [2]. Turning to `CC(C)(C)C1CCCCC1` [4-tert-butyl cyclohexane], the FFI by setting is: under setting [1], 0; under setting [2], 0.3. In turn, `CCCCCCCCCCCCO` [Material 174] registered an FFI under setting [2] of 0.5. On to `CC(=O)OCCCCCCC(C)C` [Material 204], for which the FFI runs as follows: under setting [1], 0; under setting [2], 0. In turn, `CC1(C)CCc2ccc(CCC=O)cc21` [Material 261, 3-(3,3-dimethyl-2,3-dihydro-1H-inden-5-yl)propanal] had an FFI (Conc 50 ppm test material on clean swatch, listed as 1H-Indene-5-propanal, 2,3-dihydro-3 ,3-dimethyl-) of 0.5. For the compound `CC1(C)CCc2ccc(CCC=O)cc21` [Material 261], under setting [2], the FFI is listed as 1.3.

As to `CC(=O)OC1CC2CC1C1CC=CC21` (stereo not drawn) [Material 281], the FFI under setting [1] is 0 and the FFI under setting [2] is 0.5. Regarding `CCCCCCCCCCCC(=O)OCC` [Material 391], the FFI under setting [2] stood at 0.3. Under setting [2], `C=CC(C)=CCC=C(C)C` [Material 524] came in with an FFI of 0. The compound `CCC(O)COC1CCCCC1C(C)(C)C` (stereo not drawn) [Material 677] gave an FFI under setting [1] of 0 and an FFI under setting [2] of 1.8.

In the case of `CC(CCO)CCc1ccccc1` (stereo not drawn) [Material 962], the FFI is 0 under setting [1] and 0.5 under setting [2].

The compound `CCOC(=O)OC1C(C)CCC(C)C1C` (stereo not drawn) [Material 1005] gave an FFI under setting [2] of 0.5.

With `COC(=O)OC1CC/C=C\CCC1` (stereo not drawn) [Material 1139], the FFI under setting [1] turned out to be 0 and the FFI under setting [2] came to 1.0. `C=C1CCC2OC2(C)CCC2C1CC2(C)C` (stereo not drawn) [Material 1148]: under setting [2], the FFI came out at 0.5. Take `CC1(C)C2CCC3(C2)C1C(=O)CCC3(C)C` (stereo not drawn) [Material 1149]: the FFI stood at 0 under setting [1] and 0.8 under setting [2]. As for `CCCCCCCCCCCO` [Undecanol], the FFI under setting [2] is 0.8.
